PubChem BioAssay AID1159578 – Peter MacCallum Cancer Centre | 2015
The whole screen tested about 18,000 reagents; below is an unselected part. In the full data, about 1,030 (5.7%) were called active. 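Inactive calls also include pools with fewer than 3300 nuclei, whose migration was not assessed.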 The raw values are shown without normalisation. Not all columns of the deposit are shown.

Purpose: 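Genome-wide hunt for genes controlling movement of lymphatic endothelial cells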 (primary screen)
System: human lymphatic endothelial cells
Reagents: siRNA pool against human genes, 40 nM
Time to read-out: 48 h after transfection
Measurement: 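Cells stained with dye and imaged after a scratch; covered wound area and nuclei counted, duplicates averaged, migration set against mock wells and turned into a robust z-score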
Scale: migration robust z-score: higher = faster migration into the scratch; nuclei per well: higher = more cells in the well
Call rule: 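Pools averaging fewer than 3300 nuclei are never called; remaining pools count as changed when migration robust z lies outside -2 to 2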
Meaning of the calls: active = migration changed; inactive = no migration change, or too few cells

{"Target gene":"C10orf71 (chromosome 10 open reading frame 71)","migration robust z-score":1.87,"migration class with cell-count check":"migration z between -2 and 2; enough cells","nuclei per well, duplicate mean":4938,"activity call":"inactive"}
{"Target gene":"MIIP (migration and invasion inhibitory protein)","migration robust z-score":1.26,"migration class with cell-count check":"migration z between -2 and 2; enough cells","nuclei per well, duplicate mean":5796,"activity call":"inactive"}
{"Target gene":"TIMM10B (translocase of inner mitochondrial membrane 10B)","migration robust z-score":0.7,"migration class with cell-count check":"migration z between -2 and 2; enough cells","nuclei per well, duplicate mean":4700,"activity call":"inactive"}
{"Target gene":"TM4SF4 (transmembrane 4 L six family member 4)","migration robust z-score":-0.34,"migration class with cell-count check":"under 3300 nuclei; migration not judged","nuclei per well, duplicate mean":3152,"activity call":"inactive"}
{"Target gene":"TSNAX (translin associated factor X)","migration robust z-score":-0.22,"migration class with cell-count check":"migration z between -2 and 2; enough cells","nuclei per well, duplicate mean":6312,"activity call":"inactive"}
{"Target gene":"OR8B8 (olfactory receptor family 8 subfamily B member 8)","migration robust z-score":-0.57,"migration class with cell-count check":"migration z between -2 and 2; enough cells","nuclei per well, duplicate mean":4803,"activity call":"inactive"}
{"Target gene":"DGCR6L (DiGeorge syndrome critical region gene 6 like)","migration robust z-score":-0.46,"migration class with cell-count check":"migration z between -2 and 2; enough cells","nuclei per well, duplicate mean":4452,"activity call":"inactive"}
{"Target gene":"NHLRC4 (NHL repeat containing 4)","migration robust z-score":0.13,"migration class with cell-count check":"migration z between -2 and 2; enough cells","nuclei per well, duplicate mean":5744,"activity call":"inactive"}
{"Target gene":"B4GALT2 (beta-1,4-galactosyltransferase 2)","migration robust z-score":-3.04,"migration class with cell-count check":"under 3300 nuclei; migration not judged","nuclei per well, duplicate mean":2523,"activity call":"inactive"}
{"Target gene":"TLE4 (TLE family member 4, transcriptional corepressor)","migration robust z-score":0.29,"migration class with cell-count check":"migration z between -2 and 2; enough cells","nuclei per well, duplicate mean":4728,"activity call":"inactive"}
{"Target gene":"MBLAC2 (metallo-beta-lactamase domain containing 2)","migration robust z-score":0.5,"migration class with cell-count check":"migration z between -2 and 2; enough cells","nuclei per well, duplicate mean":6618,"activity call":"inactive"}
{"Target gene":"POC1B (POC1 centriolar protein B)","migration robust z-score":-0.56,"migration class with cell-count check":"migration z between -2 and 2; enough cells","nuclei per well, duplicate mean":4637,"activity call":"inactive"}
{"Target gene":"PYDC1 (pyrin domain containing 1)","migration robust z-score":-1.3,"migration class with cell-count check":"migration z between -2 and 2; enough cells","nuclei per well, duplicate mean":3594,"activity call":"inactive"}
{"Target gene":"TTLL12 (tubulin tyrosine ligase like 12)","migration robust z-score":-3.75,"migration class with cell-count check":"migration z below -2; enough cells","nuclei per well, duplicate mean":4240,"activity call":"active"}

Limited to “nuclei per well, duplicate mean”, for 2 of the entries above:
PYDC1 (pyrin domain containing 1) = 3594
TTLL12 (tubulin tyrosine ligase like 12) = 4240
